Source: publication PMC4658663
No constants are given. Whether binding was seen depends on the method and setting. Binding seen in cells or lysates may run through a third protein. Here binding means that the protein was enriched with, or labelled near, the bait; the list need not be complete. For part of these data: Sequences can lack the tags named with a protein.

By UniProt entry, the sequences of proteins in these tests, tags left out.
UniProt P31391: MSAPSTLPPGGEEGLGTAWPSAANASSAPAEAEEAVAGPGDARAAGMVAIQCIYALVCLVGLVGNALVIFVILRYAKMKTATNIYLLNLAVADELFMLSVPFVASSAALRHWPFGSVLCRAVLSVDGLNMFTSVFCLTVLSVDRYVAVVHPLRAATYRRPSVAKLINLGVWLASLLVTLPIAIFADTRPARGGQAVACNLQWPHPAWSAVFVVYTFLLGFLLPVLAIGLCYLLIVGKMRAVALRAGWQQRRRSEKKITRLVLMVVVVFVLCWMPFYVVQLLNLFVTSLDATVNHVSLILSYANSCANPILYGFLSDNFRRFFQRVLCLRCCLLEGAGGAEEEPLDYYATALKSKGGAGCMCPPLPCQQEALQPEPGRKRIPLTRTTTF
UniProt P25100: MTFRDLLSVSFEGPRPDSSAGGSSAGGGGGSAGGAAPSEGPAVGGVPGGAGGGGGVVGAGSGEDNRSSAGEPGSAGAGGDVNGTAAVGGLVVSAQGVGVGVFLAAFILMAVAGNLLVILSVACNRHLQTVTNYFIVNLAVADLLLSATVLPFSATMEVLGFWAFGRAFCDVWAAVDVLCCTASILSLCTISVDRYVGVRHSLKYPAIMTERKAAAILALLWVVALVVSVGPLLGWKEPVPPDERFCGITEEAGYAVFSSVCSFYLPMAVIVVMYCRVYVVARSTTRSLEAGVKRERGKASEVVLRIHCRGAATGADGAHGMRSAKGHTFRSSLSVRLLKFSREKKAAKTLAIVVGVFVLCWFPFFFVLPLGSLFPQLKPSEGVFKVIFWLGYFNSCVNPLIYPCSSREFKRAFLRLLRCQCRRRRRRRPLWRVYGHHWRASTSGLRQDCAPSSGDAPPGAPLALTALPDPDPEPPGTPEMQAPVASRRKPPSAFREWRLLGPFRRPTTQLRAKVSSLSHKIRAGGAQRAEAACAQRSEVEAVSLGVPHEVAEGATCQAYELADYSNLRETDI
UniProt P32745: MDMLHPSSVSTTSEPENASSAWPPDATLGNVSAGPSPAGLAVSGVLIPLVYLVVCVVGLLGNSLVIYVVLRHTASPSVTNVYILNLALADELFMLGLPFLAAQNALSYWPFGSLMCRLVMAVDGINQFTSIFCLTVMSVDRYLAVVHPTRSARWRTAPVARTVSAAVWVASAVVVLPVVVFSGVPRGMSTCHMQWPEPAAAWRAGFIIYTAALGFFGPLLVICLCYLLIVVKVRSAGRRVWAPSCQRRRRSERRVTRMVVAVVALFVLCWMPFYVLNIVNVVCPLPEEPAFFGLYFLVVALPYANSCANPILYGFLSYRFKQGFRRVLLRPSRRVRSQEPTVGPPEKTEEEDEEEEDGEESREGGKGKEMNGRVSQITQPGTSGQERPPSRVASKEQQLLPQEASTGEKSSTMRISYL
UniProt P25025: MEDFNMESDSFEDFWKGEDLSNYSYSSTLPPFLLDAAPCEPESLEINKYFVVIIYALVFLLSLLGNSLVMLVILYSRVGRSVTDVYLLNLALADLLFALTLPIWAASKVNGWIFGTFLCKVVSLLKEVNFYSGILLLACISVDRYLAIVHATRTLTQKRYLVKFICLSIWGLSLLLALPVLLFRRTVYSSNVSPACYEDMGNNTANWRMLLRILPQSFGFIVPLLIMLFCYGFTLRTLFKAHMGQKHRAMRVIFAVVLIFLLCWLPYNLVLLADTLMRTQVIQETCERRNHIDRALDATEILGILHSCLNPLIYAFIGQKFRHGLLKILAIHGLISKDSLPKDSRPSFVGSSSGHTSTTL
UniProt Q9NS75: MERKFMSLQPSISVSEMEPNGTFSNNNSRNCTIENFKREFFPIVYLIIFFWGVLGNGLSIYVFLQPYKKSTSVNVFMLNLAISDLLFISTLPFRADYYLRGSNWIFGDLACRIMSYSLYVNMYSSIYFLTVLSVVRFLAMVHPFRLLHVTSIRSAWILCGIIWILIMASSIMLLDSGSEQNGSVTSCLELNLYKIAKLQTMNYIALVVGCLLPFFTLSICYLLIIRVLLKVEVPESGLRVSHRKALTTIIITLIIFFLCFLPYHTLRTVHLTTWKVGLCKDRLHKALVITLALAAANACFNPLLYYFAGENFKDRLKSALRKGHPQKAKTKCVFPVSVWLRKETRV
UniProt P49682: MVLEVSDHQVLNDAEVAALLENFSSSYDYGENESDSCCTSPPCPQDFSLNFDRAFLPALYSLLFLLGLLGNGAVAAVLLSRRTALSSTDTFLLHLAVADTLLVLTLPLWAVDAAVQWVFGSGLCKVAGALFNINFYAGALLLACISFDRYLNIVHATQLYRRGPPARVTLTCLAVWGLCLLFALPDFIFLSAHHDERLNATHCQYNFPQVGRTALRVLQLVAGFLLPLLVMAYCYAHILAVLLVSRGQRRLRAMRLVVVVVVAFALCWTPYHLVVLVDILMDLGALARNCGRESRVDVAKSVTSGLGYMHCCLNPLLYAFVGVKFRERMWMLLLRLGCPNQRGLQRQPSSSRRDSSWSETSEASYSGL
UniProt P32302: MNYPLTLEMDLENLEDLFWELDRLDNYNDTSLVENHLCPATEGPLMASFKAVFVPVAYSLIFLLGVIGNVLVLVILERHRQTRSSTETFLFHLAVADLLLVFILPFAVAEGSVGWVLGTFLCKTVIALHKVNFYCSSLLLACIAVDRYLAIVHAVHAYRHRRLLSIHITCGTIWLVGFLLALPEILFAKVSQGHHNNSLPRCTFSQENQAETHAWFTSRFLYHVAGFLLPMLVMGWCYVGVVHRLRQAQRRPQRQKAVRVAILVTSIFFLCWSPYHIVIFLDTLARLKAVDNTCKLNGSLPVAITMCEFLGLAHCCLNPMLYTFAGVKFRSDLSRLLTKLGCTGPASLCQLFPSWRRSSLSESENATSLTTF
UniProt P62258: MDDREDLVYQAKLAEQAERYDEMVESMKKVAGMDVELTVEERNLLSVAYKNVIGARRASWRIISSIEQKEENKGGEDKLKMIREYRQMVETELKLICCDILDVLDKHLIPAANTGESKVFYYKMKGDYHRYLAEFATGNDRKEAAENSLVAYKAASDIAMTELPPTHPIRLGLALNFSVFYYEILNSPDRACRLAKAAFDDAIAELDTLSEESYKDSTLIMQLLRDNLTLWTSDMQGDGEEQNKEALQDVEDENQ
UniProt Q86W92: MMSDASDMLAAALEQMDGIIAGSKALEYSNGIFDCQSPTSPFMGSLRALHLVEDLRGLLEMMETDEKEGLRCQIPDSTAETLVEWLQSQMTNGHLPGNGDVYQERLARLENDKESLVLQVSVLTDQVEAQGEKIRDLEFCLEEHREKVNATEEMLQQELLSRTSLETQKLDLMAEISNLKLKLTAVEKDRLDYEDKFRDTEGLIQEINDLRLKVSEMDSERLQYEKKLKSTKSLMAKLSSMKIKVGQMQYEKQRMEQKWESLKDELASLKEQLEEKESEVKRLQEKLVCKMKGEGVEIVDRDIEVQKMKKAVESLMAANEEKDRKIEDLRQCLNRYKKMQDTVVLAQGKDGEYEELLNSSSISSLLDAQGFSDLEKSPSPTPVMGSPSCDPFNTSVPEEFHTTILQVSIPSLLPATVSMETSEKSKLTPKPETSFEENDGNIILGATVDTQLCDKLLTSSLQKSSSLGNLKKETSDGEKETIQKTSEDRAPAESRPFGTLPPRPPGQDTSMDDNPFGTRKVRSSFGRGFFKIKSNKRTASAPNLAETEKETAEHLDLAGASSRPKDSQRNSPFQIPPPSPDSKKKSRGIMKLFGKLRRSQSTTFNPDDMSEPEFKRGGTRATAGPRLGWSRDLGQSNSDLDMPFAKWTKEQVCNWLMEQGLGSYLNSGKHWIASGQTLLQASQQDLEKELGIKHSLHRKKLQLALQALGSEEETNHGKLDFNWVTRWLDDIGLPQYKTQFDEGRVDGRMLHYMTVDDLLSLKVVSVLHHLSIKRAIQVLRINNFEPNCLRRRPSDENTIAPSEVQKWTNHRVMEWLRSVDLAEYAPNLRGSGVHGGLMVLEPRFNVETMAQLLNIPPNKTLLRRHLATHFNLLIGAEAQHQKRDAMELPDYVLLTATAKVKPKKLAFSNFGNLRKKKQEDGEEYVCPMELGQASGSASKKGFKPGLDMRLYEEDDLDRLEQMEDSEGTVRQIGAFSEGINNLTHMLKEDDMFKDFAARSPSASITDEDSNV
UniProt Q13136: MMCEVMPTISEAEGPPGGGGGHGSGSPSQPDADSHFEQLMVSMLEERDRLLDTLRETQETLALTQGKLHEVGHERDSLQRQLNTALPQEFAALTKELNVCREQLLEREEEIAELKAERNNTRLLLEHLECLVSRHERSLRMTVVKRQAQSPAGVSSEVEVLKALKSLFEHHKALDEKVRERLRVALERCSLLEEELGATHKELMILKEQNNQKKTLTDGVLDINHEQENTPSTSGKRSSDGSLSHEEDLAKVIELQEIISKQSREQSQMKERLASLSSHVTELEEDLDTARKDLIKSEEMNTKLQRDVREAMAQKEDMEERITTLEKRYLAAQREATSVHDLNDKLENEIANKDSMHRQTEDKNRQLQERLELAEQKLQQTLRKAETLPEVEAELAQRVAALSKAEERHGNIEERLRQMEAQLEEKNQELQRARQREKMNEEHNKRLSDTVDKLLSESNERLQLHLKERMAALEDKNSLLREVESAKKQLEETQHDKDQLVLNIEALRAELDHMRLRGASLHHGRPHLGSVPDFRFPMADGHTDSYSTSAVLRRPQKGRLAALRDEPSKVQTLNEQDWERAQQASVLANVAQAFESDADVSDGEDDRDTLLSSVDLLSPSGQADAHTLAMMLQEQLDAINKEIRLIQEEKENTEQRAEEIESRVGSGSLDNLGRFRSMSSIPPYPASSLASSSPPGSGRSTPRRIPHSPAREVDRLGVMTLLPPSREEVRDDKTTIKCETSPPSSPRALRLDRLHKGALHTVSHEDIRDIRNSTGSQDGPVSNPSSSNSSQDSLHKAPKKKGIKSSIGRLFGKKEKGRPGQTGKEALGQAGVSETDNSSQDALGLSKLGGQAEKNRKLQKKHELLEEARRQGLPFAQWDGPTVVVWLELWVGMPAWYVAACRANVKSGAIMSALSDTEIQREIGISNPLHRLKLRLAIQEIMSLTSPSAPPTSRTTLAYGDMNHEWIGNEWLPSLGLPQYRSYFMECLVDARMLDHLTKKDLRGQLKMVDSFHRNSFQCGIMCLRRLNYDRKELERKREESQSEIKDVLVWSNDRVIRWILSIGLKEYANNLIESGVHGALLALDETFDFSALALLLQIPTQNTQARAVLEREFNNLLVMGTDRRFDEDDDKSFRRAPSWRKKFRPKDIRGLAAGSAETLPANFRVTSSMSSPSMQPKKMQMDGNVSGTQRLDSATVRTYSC
UniProt P31946: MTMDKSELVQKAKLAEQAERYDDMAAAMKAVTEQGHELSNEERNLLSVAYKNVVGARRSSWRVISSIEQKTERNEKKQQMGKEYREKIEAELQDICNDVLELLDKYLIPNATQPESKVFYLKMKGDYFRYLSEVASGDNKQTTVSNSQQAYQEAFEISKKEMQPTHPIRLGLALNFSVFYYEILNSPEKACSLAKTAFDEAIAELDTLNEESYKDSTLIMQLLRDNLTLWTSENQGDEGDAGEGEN
UniProt Q9H4A6: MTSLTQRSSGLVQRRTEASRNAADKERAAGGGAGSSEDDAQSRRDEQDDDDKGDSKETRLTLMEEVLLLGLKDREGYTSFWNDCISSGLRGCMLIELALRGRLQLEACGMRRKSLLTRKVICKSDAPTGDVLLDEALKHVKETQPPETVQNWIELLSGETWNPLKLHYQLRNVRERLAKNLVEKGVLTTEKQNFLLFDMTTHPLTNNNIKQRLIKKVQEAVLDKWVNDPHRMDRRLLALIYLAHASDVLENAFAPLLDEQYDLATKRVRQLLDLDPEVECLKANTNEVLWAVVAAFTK
UniProt O00519: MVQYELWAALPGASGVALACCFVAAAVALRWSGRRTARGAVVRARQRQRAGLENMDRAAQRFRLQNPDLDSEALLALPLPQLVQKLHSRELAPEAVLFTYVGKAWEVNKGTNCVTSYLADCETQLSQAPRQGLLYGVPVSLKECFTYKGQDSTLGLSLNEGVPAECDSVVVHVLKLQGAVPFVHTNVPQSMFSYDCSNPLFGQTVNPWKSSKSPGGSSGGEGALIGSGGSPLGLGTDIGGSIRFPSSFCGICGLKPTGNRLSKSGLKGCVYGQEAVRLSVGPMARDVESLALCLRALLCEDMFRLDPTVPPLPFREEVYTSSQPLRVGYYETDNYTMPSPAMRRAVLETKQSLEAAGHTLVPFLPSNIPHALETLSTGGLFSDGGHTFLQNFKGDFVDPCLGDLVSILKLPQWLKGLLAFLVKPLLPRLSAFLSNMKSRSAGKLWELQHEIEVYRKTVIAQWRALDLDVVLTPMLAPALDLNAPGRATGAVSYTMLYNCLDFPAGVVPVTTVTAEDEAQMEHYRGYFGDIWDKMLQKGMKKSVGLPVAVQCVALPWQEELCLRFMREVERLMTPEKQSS

Experiments:
[1] = target: SSTR4 (somatostatin receptor 4), TAP-tagged (human) (UniProt P31391); test: affinity purification with mass spectrometry; TAP/MS; TAP-tagged bait transfected alone (or with empty vector) in HEK293T cells; TEV cleavage omitted; eluates on Velos-Pro Orbitrap Elite; protein FDR 2.5%
TAP–ADRA1D (human) = TAP–ADRA1D (human) (UniProt P25100); test: affinity purification with mass spectrometry; TAP/MS; TAP–ADRA1D transfected in SW480 cells
[2] = target: SSTR3 (somatostatin receptor 3), TAP-tagged (human) (UniProt P32745); test: affinity purification with mass spectrometry; TAP/MS; TAP-tagged bait transfected alone (or with empty vector) in HEK293T cells; TEV cleavage omitted; eluates on Velos-Pro Orbitrap Elite; protein FDR 2.5%
[3] = target: CXCR2 (chemokine receptor), TAP-tagged (human) (UniProt P25025); test: as above
[4] = target: CYSLTR2 (cysteinyl leukotriene 2 receptor), TAP-tagged (human) (UniProt Q9NS75); test: as above
[5] = target: T1, GALR1 (galanin type I receptor), TAP-tagged (human) (UniProt P47211); test: as above
T1 sequence: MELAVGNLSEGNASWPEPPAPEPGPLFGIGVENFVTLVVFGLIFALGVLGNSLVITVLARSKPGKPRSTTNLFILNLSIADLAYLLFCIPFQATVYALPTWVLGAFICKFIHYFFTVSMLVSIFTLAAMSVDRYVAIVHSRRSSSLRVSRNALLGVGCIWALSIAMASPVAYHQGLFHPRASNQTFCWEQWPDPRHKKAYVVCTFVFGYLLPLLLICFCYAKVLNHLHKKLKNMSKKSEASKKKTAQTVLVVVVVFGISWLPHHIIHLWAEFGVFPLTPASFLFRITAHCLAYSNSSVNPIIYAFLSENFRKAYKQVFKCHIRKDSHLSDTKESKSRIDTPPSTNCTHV

[6] = target: CXCR3 (chemokine receptor), TAP-tagged (human) (UniProt P49682); test: as above
[7] = target: CXCR5 (chemokine receptor), TAP-tagged (human) (UniProt P32302); test: as above

**Q.** How did the binding [1] turn out when YWHAE (from UniProt P62258 1-255) was run?
**A.** binds

**Q.** With PPFIBP1 (from UniProt Q86W92 1-1011) as the molecule, how does the binding (TAP–ADRA1D (human)) read?
**A.** binds

**Q.** With PPFIA1 (from UniProt Q13136 1-1202) as the molecule, how does the binding (TAP–ADRA1D (human)) read?
**A.** binds

**Q.** With CSNK2A1 (from UniProt P68400 1-391) as the molecule, how does the binding [2] read?
**A.** binds

**Q.** Which binding [1] does the source give for YWHAB (from UniProt P31946 1-246) here?
**A.** binds

**Q.** How did the binding [2] turn out when GOLPH3 (from UniProt Q9H4A6 1-298) was run?
**A.** binds

**Q.** Which binding [3] does the source give for FAAH (from UniProt O00519 1-579) here?
**A.** binds

B1: PLD3 (protein, UniProt Q8IV08 1-490)
chain: MKPKLMYQELKVPAEEPANELPMNEIEAWKAAEKKARWVLLVLILAVVGFGALMTQLFLWEYGDLHLFGPNQRPAPCYDPCEAVLVESIPEGLDFPNASTGNPSTSQAWLGLLAGAHSSLDIASFYWTLTNNDTHTQEPSAQQGEEVLRQLQTLAPKGVNVRIAVSKPSGPQPQADLQALLQSGAQVRMVDMQKLTHGVLHTKFWVVDQTHFYLGSANMDWRSLTQVKELGVVMYNCSCLARDLTKIFEAYWFLGQAGSSIPSTWPRFYDTRYNQETPMEICLNGTPALAYLASAPPPLCPSGRTPDLKALLNVVDNARSFIYVAVMNYLPTLEFSHPHRFWPAIDDGLRRATYERGVKVRLLISCWGHSEPSMRAFLLSLAALRDNHTHSDIQVKLFVVPADEAQARIPYARVNHNKYMVTERATYIGTSNWSGNYFTETAGTSLLVTQNGRGGLRSQLEAIFLRDWDSPYSHDLDTSADSVGNACRLL
**Q.** Which binding [4] does the source give for B1 here?
**A.** binds

B2: LIN7A (protein, UniProt O14910 1-233)
chain: MLKPSVTSAPTADMATLTVVQPLTLDRDVARAIELLEKLQESGEVPVHKLQSLKKVLQSEFCTAIREVYQYMHETITVNGCPEFRARATAKATVAAFAASEGHSHPRVVELPKTDEGLGFNVMGGKEQNSPIYISRIIPGGVAERHGGLKRGDQLLSVNGVSVEGEHHEKAVELLKAAKDSVKLVVRYTPKVLEEMEARFEKLRTARRRQQQQLLIQQQQQQQQQQTQQNHMS
**Q.** B2 was tested. Which binding (TAP–ADRA1D (human)) did it give?
**A.** binds

B3: YWHAH (protein, UniProt Q04917 1-246)
chain: MGDREQLLQRARLAEQAERYDDMASAMKAVTELNEPLSNEDRNLLSVAYKNVVGARRSSWRVISSIEQKTMADGNEKKLEKVKAYREKIEKELETVCNDVLSLLDKFLIKNCNDFQYESKVFYLKMKGDYYRYLAEVASGEKKNSVVEASEAAYKEAFEISKEQMQPTHPIRLGLALNFSVFYYEIQNAPEQACLLAKQAFDDAIAELDTLNEDSYKDSTLIMQLLRDNLTLWTSDQQDEEAGEGN
**Q.** How did the binding [1] turn out when B3 was run?
**A.** binds

B4: LIN7C (protein, UniProt Q9NUP9 1-197)
chain: MAALGEPVRLERDICRAIELLEKLQRSGEVPPQKLQALQRVLQSEFCNAVREVYEHVYETVDISSSPEVRANATAKATVAAFAASEGHSHPRVVELPKTEEGLGFNIMGGKEQNSPIYISRIIPGGIADRHGGLKRGDQLLSVNGVSVEGEHHEKAVELLKAAQGKVKLVVRYTPKVLEEMESRFEKMRSAKRRQQT
**Q.** Which binding [4] does the source give for B4 here?
**A.** binds

B5: PDZ domain-containing 8 (PDZD8) (protein, UniProt Q8NEN9 1-1154)
chain: MGLLLMILASAVLGSFLTLLAQFFLLYRRQPEPPADEAARAGEGFRYIKPVPGLLLREYLYGGGRDEEPSGAAPEGGATPTAAPETPAPPTRETCYFLNATILFLFRELRDTALTRRWVTKKIKVEFEELLQTKTAGRLLEGLSLRDVFLGETVPFIKTIRLVRPVVPSATGEPDGPEGEALPAACPEELAFEAEVEYNGGFHLAIDVDLVFGKSAYLFVKLSRVVGRLRLVFTRVPFTHWFFSFVEDPLIDFEVRSQFEGRPMPQLTSIIVNQLKKIIKRKHTLPNYKIRFKPFFPYQTLQGFEEDEEHIHIQQWALTEGRLKVTLLECSRLLIFGSYDREANVHCTLELSSSVWEEKQRSSIKTVELIKGNLQSVGLTLRLVQSTDGYAGHVIIETVAPNSPAAIADLQRGDRLIAIGGVKITSTLQVLKLIKQAGDRVLVYYERPVGQSNQGAVLQDNFGQLEENFLSSSCQSGYEEEAAGLTVDTESRELDSEFEDLASDVRAQNEFKDEAQSLSHSPKRVPTTLSIKPLGAISPVLNRKLAVGSHPLPPKIQSKDGNKPPPLKTSEITDPAQVSKPTQGSAFKPPVPPRPQAKVPLPSADAPNQAEPDVLVEKPEKVVPPPLVDKSAEKQAKNVDAIDDAAAPKQFLAKQEVAKDVTSETSCPTKDSSDDRQTWESSEILYRNKLGKWTRTRASCLFDIEACHRYLNIALWCRDPFKLGGLICLGHVSLKLEDVALGCLATSNTEYLSKLRLEAPSPKAIVTRTALRNLSMQKGFNDKFCYGDITIHFKYLKEGESDHHVVTNVEKEKEPHLVEEVSVLPKEEQFVGQMGLTENKHSFQDTQFQNPTWCDYCKKKVWTKAASQCMFCAYVCHKKCQEKCLAETSVCGATDRRIDRTLKNLRLEGQETLLGLPPRVDAEASKSVNKTTGLTRHIINTSSRLLNLRQVSKTRLSEPGTDLVEPSPKHTPNTSDNEGSDTEVCGPNSPSKRGNSTGIKLVRKEGGLDDSVFIAVKEIGRDLYRGLPTEERIQKLEFMLDKLQNEIDQELEHNNSLVREEKETTDTRKKSLLSAALAKSGERLQALTLLMIHYRAGIEDIETLESLSLDQHSKKISKYTDDTEEDLDNEISQLIDSQPFSSISDDLFGPSESV
**Q.** Which binding [5] does the source give for B5 here?
**A.** binds

B6: MPP7 (protein, UniProt Q5T2T1 1-576)
chain: MPALSTGSGSDTGLYELLAALPAQLQPHVDSQEDLTFLWDMFGEKSLHSLVKIHEKLHYYEKQSPVPILHGAAALADDLAEELQNKPLNSEIRELLKLLSKPNVKALLSVHDTVAQKNYDPVLPPMPEDIDDEEDSVKIIRLVKNREPLGATIKKDEQTGAIIVARIMRGGAADRSGLIHVGDELREVNGIPVEDKRPEEIIQILAQSQGAITFKIIPGSKEETPSKEGKMFIKALFDYNPNEDKAIPCKEAGLSFKKGDILQIMSQDDATWWQAKHEADANPRAGLIPSKHFQERRLALRRPEILVQPLKVSNRKSSGFRKSFRLSRKDKKTNKSMYECKKSDQYDTADVPTYEEVTPYRRQTNEKYRLVVLVGPVGVGLNELKRKLLISDTQHYGVTVPHTTRARRSQESDGVEYIFISKHLFETDVQNNKFIEYGEYKNNYYGTSIDSVRSVLAKNKVCLLDVQPHTVKHLRTLEFKPYVIFIKPPSIERLRETRKNAKIISSRDDQGAAKPFTEEDFQEMIKSAQIMESQYGHLFDKIIINDDLTVAFNELKTTFDKLETETHWVPVSWLHS
**Q.** Which binding [4] does the source give for B6 here?
**A.** binds

B7: GHDC (protein, UniProt Q8N2G8 18-530)
chain: LLRQQRSQDARLSWLAGLQHRVAWGALVWAATWQRRRLEQSTLHVHQSQQQALRWCLQGAQRPHCSLRRSTDISTFRNHLPLTKASQTQQEDSGEQPLPPTSNQDLGEASLQATLLGLAALNKAYPEVLAQGRTARVTLTSPWPRPLPWPGNTLGQVGTPGTKDPRALLLDALRSPGLRALEAGTAVELLDVFLGLETDGEELAGAIAAGNPGAPLRERAAELREALEQGPRGLALRLWPKLQVVVTLDAGGQAEAVAALGALWCQGLAFFSPAYAASGGVLGLNLQPEQPHGLYLLPPGAPFIELLPVKEGTQEEAASTLLLAEAQQGKEYELVLTDRASLTRCRLGDVVRVVGAYNQCPVVRFICRLDQTLSVRGEDIGEDLFSEALGRAVGQWAGAKLLDHGCVESSILDSSAGSAPHYEVFVALRGLRNLSEENRDKLDHCLQEASPRYKSLRFWGSVGPARVHLVGQGAFRALRAALAACPSSPFPPAMPRVLRHRHLAQCLQERVVS
**Q.** What does the source list for B7?
**A.** binding [6]: binds; binding [7]: binds
